This is one part of the list.
Tests used:
Assay in all cases: log2 fold change, soluble protein after heating vs DMSO (PISA); higher = thermal stabilisation; K562 lysate, 10 uM; active = over 0.2 and 3.5 SD of the protein, either way, in both replicates (recomputed)
[1] = compound: C1=CC=C(C=C1)[C@H](COC2=CC3=C(C=C2)NC(=O)N3)NC(=O)C4=CC=CN(C4=O)CC5=CC(=C(C=C5)F)F
In short: (§1)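 Pellets of K562 cells were dounce-homogenised in PBS pH 7.4 with 1 mM MgCl2, and the crude extract was held at 1 mg/mL protein for a 30 min treatment with 10 μM compound. Aliquots were heated for 3 min over 48°C-58°C and pooled before NP-40 was added to 0.5% at 4°C. The supernatant from 21,000xg for 90 min was quantified by TMTpro 16plex LC-MS/MS with channel sums equalised. Values are reported from duplicates as log-two fold change in thermal stability relative to solvent controls.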

The chains behind the UniProt entries cited, without tags or fusion partners. Where a name states a change or a piece, a line headed by the entry shows the natural chain unless it says otherwise.
UniProt Q8TAP9: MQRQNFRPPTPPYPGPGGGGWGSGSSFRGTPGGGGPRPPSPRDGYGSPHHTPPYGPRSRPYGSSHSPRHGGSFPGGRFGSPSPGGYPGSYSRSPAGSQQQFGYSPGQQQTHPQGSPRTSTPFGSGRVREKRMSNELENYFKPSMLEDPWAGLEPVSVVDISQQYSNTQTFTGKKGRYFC
UniProt Q13724: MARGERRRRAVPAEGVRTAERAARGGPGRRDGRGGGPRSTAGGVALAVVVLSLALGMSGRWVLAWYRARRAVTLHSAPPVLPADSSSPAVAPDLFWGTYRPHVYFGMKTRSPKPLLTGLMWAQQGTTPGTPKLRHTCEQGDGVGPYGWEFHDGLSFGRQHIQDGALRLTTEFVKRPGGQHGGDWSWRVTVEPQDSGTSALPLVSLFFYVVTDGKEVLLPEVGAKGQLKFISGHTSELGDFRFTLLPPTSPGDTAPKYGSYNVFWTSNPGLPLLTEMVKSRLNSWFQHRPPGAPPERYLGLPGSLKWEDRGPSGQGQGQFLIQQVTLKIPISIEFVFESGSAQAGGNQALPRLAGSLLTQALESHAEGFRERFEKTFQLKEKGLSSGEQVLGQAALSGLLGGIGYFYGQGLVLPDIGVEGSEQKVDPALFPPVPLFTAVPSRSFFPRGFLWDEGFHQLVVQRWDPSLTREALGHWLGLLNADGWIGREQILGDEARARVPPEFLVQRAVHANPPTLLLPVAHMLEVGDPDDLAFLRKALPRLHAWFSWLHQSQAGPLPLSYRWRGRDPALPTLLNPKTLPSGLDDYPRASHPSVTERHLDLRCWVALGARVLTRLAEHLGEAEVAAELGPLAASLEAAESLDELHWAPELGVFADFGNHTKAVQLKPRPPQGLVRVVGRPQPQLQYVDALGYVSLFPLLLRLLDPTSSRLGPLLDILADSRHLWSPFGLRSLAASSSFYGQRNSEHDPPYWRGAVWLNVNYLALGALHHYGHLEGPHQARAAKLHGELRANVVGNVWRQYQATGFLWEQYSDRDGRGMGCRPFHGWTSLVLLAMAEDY
UniProt Q9NQG6: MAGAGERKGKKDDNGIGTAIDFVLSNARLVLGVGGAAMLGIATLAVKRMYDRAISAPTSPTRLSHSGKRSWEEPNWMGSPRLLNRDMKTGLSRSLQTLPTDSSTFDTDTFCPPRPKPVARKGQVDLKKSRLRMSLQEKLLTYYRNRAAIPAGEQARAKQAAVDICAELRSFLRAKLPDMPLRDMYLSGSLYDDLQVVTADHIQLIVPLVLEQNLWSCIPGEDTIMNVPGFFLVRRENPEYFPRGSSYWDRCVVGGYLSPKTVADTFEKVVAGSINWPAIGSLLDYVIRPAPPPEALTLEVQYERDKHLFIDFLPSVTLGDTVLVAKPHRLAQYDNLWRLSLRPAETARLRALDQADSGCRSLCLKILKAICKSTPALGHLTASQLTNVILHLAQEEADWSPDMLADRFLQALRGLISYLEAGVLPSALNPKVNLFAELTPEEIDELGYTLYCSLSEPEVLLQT
UniProt P34949: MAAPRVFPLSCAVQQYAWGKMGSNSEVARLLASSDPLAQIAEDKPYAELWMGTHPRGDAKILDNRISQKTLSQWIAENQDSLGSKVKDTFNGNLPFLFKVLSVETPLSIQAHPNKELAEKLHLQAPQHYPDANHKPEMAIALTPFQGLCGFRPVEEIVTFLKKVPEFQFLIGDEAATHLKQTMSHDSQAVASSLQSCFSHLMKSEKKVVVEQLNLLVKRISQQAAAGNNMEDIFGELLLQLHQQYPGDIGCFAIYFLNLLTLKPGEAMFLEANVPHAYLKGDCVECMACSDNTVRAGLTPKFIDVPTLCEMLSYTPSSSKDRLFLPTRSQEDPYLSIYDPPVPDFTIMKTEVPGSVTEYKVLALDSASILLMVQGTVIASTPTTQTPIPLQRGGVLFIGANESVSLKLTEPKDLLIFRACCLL
UniProt P50219: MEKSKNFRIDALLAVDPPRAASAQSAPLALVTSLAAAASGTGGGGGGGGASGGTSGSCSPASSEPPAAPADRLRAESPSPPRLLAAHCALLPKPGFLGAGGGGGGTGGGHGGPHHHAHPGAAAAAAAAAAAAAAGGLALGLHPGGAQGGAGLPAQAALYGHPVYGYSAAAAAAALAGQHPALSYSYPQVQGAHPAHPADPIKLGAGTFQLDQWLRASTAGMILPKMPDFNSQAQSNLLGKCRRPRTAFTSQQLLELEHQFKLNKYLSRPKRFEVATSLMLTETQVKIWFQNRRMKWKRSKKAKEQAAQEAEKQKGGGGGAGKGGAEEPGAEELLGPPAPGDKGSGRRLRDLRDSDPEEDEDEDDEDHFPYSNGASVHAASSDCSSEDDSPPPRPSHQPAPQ
UniProt Q9BRT3: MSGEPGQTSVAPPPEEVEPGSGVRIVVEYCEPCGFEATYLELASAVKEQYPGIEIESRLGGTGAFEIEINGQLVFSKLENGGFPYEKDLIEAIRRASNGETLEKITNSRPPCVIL
UniProt Q96BX8: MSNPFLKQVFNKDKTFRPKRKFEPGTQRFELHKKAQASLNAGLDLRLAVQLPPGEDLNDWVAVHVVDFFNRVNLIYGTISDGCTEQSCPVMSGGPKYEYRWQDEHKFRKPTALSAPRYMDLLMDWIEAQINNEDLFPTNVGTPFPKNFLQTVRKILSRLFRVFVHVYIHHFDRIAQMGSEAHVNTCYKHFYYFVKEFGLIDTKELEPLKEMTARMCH
UniProt Q7L1V2: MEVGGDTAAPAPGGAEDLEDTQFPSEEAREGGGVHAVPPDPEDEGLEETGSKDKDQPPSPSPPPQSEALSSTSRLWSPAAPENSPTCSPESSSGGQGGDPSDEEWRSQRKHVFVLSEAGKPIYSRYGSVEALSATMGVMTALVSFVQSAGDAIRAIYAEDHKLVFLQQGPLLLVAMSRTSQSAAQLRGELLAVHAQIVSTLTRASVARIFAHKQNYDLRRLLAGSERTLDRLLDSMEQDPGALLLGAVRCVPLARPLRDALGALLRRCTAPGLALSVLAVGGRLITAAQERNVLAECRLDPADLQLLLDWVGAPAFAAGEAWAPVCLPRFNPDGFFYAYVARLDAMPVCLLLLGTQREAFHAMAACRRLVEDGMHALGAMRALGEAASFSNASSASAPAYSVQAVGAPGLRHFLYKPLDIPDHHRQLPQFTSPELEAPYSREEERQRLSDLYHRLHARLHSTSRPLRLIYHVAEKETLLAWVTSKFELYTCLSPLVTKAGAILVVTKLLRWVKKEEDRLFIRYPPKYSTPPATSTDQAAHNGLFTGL
UniProt Q8IWI9: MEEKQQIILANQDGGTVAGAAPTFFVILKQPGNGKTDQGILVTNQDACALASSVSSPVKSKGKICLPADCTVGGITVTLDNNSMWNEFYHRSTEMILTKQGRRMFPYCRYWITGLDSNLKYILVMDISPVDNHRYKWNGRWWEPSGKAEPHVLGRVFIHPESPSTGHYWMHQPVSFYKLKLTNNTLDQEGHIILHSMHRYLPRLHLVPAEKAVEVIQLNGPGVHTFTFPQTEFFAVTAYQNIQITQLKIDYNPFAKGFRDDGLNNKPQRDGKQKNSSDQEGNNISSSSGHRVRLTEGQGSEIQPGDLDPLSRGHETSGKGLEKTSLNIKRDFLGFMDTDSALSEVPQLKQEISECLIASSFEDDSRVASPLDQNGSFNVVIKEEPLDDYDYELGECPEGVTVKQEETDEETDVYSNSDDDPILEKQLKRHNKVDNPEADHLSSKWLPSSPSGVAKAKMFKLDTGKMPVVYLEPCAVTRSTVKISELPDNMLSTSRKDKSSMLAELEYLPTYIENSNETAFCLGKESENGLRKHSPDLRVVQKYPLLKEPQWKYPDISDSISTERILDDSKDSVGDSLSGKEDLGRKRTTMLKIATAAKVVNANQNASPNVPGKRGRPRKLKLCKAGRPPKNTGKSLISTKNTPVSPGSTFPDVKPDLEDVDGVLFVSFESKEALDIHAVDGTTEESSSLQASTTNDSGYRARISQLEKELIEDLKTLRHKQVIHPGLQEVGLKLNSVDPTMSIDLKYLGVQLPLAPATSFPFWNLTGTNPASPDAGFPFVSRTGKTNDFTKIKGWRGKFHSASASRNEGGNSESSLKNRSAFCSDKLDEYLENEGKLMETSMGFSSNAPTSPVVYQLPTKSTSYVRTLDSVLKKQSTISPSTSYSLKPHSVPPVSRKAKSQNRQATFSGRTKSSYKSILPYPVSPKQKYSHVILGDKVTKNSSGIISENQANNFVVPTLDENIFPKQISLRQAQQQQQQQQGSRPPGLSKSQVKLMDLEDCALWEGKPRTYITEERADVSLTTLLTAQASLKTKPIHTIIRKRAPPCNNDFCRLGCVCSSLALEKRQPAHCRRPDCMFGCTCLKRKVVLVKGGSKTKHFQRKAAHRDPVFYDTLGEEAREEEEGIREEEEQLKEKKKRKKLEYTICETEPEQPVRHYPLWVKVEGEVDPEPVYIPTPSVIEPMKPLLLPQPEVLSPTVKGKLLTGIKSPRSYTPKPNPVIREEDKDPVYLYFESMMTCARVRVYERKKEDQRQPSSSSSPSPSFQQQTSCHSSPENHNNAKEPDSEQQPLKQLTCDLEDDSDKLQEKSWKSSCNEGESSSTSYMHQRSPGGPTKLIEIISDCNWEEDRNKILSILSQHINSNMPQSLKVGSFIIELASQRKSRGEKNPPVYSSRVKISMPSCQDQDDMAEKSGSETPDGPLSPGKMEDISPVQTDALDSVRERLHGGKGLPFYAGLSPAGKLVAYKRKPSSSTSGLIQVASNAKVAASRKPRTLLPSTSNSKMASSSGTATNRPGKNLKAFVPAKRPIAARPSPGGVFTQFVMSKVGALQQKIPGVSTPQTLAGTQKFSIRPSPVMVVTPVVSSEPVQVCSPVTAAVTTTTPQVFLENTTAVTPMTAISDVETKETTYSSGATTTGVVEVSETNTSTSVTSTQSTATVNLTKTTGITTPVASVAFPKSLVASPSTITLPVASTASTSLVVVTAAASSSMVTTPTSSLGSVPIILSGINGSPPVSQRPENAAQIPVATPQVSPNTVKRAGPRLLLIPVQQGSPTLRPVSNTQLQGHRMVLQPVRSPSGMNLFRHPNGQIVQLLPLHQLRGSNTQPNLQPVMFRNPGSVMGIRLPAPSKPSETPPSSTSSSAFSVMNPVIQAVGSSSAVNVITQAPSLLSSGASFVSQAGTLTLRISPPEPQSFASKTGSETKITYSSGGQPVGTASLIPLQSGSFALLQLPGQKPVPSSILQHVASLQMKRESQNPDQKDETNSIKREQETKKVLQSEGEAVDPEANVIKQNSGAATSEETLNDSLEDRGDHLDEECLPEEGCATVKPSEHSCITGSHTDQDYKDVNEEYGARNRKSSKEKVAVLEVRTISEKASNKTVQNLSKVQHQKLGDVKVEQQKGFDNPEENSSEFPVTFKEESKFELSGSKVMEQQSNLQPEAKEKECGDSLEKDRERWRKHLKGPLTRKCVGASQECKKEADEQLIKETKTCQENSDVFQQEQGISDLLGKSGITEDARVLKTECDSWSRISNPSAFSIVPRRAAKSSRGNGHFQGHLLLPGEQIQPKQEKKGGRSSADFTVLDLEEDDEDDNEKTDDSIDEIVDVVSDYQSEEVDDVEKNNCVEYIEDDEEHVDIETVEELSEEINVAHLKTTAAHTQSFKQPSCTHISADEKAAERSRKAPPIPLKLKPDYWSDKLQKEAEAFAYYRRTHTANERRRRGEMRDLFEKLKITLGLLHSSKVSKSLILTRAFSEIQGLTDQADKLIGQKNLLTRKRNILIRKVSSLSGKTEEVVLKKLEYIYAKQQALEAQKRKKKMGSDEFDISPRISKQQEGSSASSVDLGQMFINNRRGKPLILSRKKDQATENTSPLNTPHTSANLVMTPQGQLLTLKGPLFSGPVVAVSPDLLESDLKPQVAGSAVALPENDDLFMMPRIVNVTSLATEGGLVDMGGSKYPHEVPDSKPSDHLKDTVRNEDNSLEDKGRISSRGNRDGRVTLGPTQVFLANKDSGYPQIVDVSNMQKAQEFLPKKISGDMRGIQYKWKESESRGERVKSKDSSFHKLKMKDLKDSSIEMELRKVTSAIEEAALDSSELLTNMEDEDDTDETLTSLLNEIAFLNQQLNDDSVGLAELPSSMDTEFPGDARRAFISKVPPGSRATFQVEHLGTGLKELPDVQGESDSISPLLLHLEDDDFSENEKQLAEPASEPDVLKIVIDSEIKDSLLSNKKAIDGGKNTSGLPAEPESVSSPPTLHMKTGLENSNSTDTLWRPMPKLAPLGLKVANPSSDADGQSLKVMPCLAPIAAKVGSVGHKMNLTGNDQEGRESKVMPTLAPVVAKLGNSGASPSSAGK
UniProt Q9BVC4, whole entry, looked up: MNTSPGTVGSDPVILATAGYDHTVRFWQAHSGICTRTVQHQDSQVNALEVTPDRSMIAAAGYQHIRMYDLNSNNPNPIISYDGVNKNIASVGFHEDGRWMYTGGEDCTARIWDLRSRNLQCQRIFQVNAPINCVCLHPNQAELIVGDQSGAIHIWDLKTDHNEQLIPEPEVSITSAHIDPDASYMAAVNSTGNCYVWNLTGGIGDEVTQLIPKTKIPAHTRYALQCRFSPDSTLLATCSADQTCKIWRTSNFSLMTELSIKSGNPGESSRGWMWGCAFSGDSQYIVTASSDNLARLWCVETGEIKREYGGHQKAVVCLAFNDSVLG

[2] = compound: CC1=C(SC2=C1C(=N[C@H](C3=NN=C(N32)C)CC(=O)N)C4=CC=C(C=C4)Cl)C
In short: as §1

[3] = compound: CC1=C2C(=CC=C1)N=C(N(C2=O)C3=CC=CC=C3C)CN4C=NC5=C(N=CN=C54)N
In short: as §1

[4] = compound: Cc1sc2c(c1C)C(c1ccc(Cl)cc1)=N[C@@H](CC(=O)OC(C)(C)C)c1nnc(C)n1-2
In short: as §1

[5] = compound: c1ccc([C@@H]2C[C@H]2NC2CCNCC2)cc1
In short: as §1

Measured: log2 fold change

MRAS (UniProt O14807)
inactive: [1] -0.083 | [2] 0.074 | [3] 0.104 | [4] -0.126 | [5] -0.113

MPC2 (UniProt O95563)
inactive: [1] 0.015 | [2] -0.001 | [3] 0.007 | [4] -0.028 | [5] -0.121

MRE11 isoform 3 (UniProt P49959)
inactive: [1] 0.015 | [2] 0.005 | [3] 0.023 | [4] 0.099 | [5] -0.023

MICU1 isoform 3 (UniProt Q9BPX6)
inactive: [1] -0.018 | [2] 0.027 | [3] -0.035 | [4] -0.043 | [5] 0.196

MPLKIP (UniProt Q8TAP9)
inactive: [1] 0.153 | [2] -0.062 | [3] -0.045 | [4] -0.292 | [5] -0.028

MRPL1 (UniProt Q9BYD6)
inactive: [1] 0.038 | [2] -0.004 | [3] 0.011 | [4] -0.033 | [5] 0.086

MPP6 (UniProt Q9NZW5)
inactive: [1] -0.002 | [2] 0.038 | [3] 0.036 | [4] -0.049 | [5] 0.005

MRPL13 (UniProt Q9BYD1)
inactive: [1] 0.058 | [2] 0.13 | [3] -0.031 | [4] 0.019 | [5] 0.031

MOGS (UniProt Q13724)
inactive: [1] -0.018 | [2] 0.023 | [3] 0.001 | [4] 0.027 | [5] 0.021

MKKS (UniProt Q9NPJ1)
inactive: [1] -0.024 | [2] -0.07 | [3] 0.066 | [4] -0.19 | [5] 0.206

MIEF1 (UniProt Q9NQG6)
inactive: [1] -0.062 | [2] -0.054 | [3] 0.003 | [4] -0.09 | [5] 0.101

MICOS10 (UniProt Q5TGZ0)
inactive: [1] -0.074 | [2] -0.152 | [3] 0 | [4] -0.049 | [5] 0.019

MIPEP (UniProt Q99797)
inactive: [1] 0.015 | [2] -0.019 | [3] 0.052 | [4] 0.028 | [5] -0.008

MPP1 (UniProt Q00013)
inactive: [1] -0.01 | [2] 0.006 | [3] 0.024 | [4] 0.016 | [5] 0.044

MMUT (UniProt P22033)
inactive: [1] -0.008 | [2] 0.051 | [3] 0.021 | [4] 0.012 | [5] 0.03

MRPL19 (UniProt P49406)
inactive: [1] 0.017 | [2] -0.064 | [3] 0.011 | [4] -0.065 | [5] 0.019

MICAL1 isoform 4 (UniProt Q8TDZ2)
inactive: [1] -0.045 | [2] -0.007 | [3] 0.007 | [4] -0.035 | [5] -0.02

MKRN2 (UniProt Q9H000)
inactive: [1] -0.015 | [2] 0.001 | [3] 0.034 | [4] 0.036 | [5] 0.077

MMTAG2 (UniProt Q9BU76)
inactive: [1] -0.002 | [2] -0.017 | [3] 0.046 | [4] 0.005 | [5] 0.087

MOB4 (UniProt Q9Y3A3)
inactive: [1] 0.028 | [2] 0 | [3] 0.03 | [4] 0.009 | [5] -0.086

MPI (UniProt P34949)
inactive: [1] 0.023 | [2] -0.014 | [3] 0.033 | [4] -0.023 | [5] 0.083

MPST isoform 2 (UniProt P25325)
inactive: [1] -0.002 | [2] -0.012 | [3] -0.006 | [4] 0.008 | [5] -0.005

MMS22L (UniProt Q6ZRQ5)
inactive: [1] -0.062 | [2] -0.027 | [3] -0.038 | [4] 0.07 | [5] 0.11

MLX (UniProt Q9UH92)
inactive: [1] -0.123 | [2] -0.002 | [3] 0.063 | [4] -0.008 | [5] 0.023

MRFAP1 (UniProt Q9Y605)
inactive: [1] -0.02 | [2] -0.019 | [3] 0.03 | [4] -0.029 | [5] 0.014

MIOS (UniProt Q9NXC5)
inactive: [1] -0.006 | [2] -0.019 | [3] 0 | [4] -0.014 | [5] -0.037

MGME1 (UniProt Q9BQP7)
inactive: [1] 0.029 | [2] 0.009 | [3] -0.018 | [4] -0.01 | [5] 0.005

MNX1 (UniProt P50219)
inactive: [1] -0.052 | [2] -0.076 | [3] 0.177 | [4] 0.012 | [5] 0.03

MPV17L2 (UniProt Q567V2)
inactive: [1] -0.014 | [2] 0.047 | [3] -0.175 | [4] -0.017 | [5] -0.025

MKRN3 (UniProt Q13064)
inactive: [1] 0.028 | [2] 0.049 | [3] -0.085 | [4] 0.06 | [5] -0.013

MRPL21 (UniProt Q7Z2W9)
inactive: [1] -0.004 | [2] 0.081 | [3] 0.049 | [4] 0.031 | [5] 0

MICAL2 (UniProt O94851)
inactive: [1] 0.126 | [2] 0.114 | [3] 0.016 | [4] 0.344 | [5] 0.031

MGST2 (UniProt Q99735)
inactive: [1] 0.038 | [2] -0.062 | [3] -0.016 | [4] -0.025 | [5] -0.136

MIEN1 (UniProt Q9BRT3)
inactive: [1] -0.002 | [2] -0.025 | [3] 0.006 | [4] -0.007 | [5] 0.006

MRPL17 (UniProt Q9NRX2)
inactive: [1] 0.054 | [2] 0.008 | [3] -0.034 | [4] 0.049 | [5] 0.059

MLEC (UniProt Q14165)
inactive: [1] 0.048 | [2] 0.005 | [3] 0.004 | [4] -0.018 | [5] 0.012

MPV17 (UniProt P39210)
inactive: [1] -0.11 | [2] -0.083 | [3] 0.036 | [4] -0.015 | [5] 0.02

MOB3A (UniProt Q96BX8)
inactive: [1] -0.013 | [2] 0.019 | [3] -0.035 | [4] 0.025 | [5] 0.031

MIF4GD isoform 3 (UniProt A9UHW6)
inactive: [1] -0.046 | [2] -0.033 | [3] 0.005 | [4] -0.051 | [5] -0.029

MON1B (UniProt Q7L1V2)
inactive: [1] -0.009 | [2] 0.016 | [3] 0.012 | [4] -0.017 | [5] 0.001

MPDU1 (UniProt O75352)
inactive: [1] -0.104 | [2] 0.037 | [3] 0.029 | [4] -0.111 | [5] -0.069

MPHOSPH6 (UniProt Q99547)
inactive: [1] 0.006 | [2] 0.012 | [3] 0.056 | [4] -0.103 | [5] 0.002

Quoted from the results shown (14 entries):
MPP6 (UniProt Q9NZW5)
inactive: [1] -0.002 | [2] 0.038 | [3] 0.036 | [4] -0.049 | [5] 0.005

MRPL13 (UniProt Q9BYD1)
inactive: [1] 0.058 | [2] 0.13 | [3] -0.031 | [4] 0.019 | [5] 0.031

MOGS (UniProt Q13724)
inactive: [1] -0.018 | [2] 0.023 | [3] 0.001 | [4] 0.027 | [5] 0.021

MKKS (UniProt Q9NPJ1)
inactive: [1] -0.024 | [2] -0.07 | [3] 0.066 | [4] -0.19 | [5] 0.206

MIEF1 (UniProt Q9NQG6)
inactive: [1] -0.062 | [2] -0.054 | [3] 0.003 | [4] -0.09 | [5] 0.101

MICOS10 (UniProt Q5TGZ0)
inactive: [1] -0.074 | [2] -0.152 | [3] 0 | [4] -0.049 | [5] 0.019

MIPEP (UniProt Q99797)
inactive: [1] 0.015 | [2] -0.019 | [3] 0.052 | [4] 0.028 | [5] -0.008

MPP1 (UniProt Q00013)
inactive: [1] -0.01 | [2] 0.006 | [3] 0.024 | [4] 0.016 | [5] 0.044

MMUT (UniProt P22033)
inactive: [1] -0.008 | [2] 0.051 | [3] 0.021 | [4] 0.012 | [5] 0.03

MRPL19 (UniProt P49406)
inactive: [1] 0.017 | [2] -0.064 | [3] 0.011 | [4] -0.065 | [5] 0.019

MICAL1 isoform 4 (UniProt Q8TDZ2)
inactive: [1] -0.045 | [2] -0.007 | [3] 0.007 | [4] -0.035 | [5] -0.02

MKRN2 (UniProt Q9H000)
inactive: [1] -0.015 | [2] 0.001 | [3] 0.034 | [4] 0.036 | [5] 0.077

MMTAG2 (UniProt Q9BU76)
inactive: [1] -0.002 | [2] -0.017 | [3] 0.046 | [4] 0.005 | [5] 0.087

MOB4 (UniProt Q9Y3A3)
inactive: [1] 0.028 | [2] 0 | [3] 0.03 | [4] 0.009 | [5] -0.086

Next part.

MGA (UniProt Q8IWI9)
inactive: [1] -0.044 | [2] 0.134 | [3] 0.152 | [4] -0.225 | [5] -0.078

MID1IP1 (UniProt Q9NPA3)
inactive: [1] 0.15 | [2] -0.153 | [3] 0.027 | [4] 0.072 | [5] 0.073

MORC2 (UniProt Q9Y6X9)
inactive: [1] -0.068 | [2] 0.043 | [3] 0.049 | [4] -0.014 | [5] 0.018

MGRN1 isoform 2 (UniProt O60291)
inactive: [1] 0.114 | [2] -0.084 | [3] -0.081 | [4] 0.073 | [5] 0.052

MGST1 (UniProt P10620)
inactive: [1] -0.08 | [2] 0.005 | [3] 0 | [4] -0.056 | [5] 0.022

MPZL1 (UniProt O95297)
inactive: [1] 0.056 | [2] 0.006 | [3] -0.068 | [4] -0.042 | [5] 0.125

MKI67 (UniProt P46013)
inactive: [1] 0.08 | [2] 0.016 | [3] -0.028 | [4] 0.003 | [5] 0.013

MRPL10 isoform 2 (UniProt Q7Z7H8)
inactive: [1] -0.053 | [2] 0.097 | [3] 0.023 | [4] -0.026 | [5] 0.016

MICAL3 (UniProt Q7RTP6)
inactive: [1] 0.033 | [2] -0.007 | [3] 0.022 | [4] -0.024 | [5] -0.041

MLST8 (UniProt Q9BVC4)
inactive: [1] -0.038 | [2] 0.037 | [3] -0.051 | [4] 0.001 | [5] 0.011

MRM1 (UniProt Q6IN84)
inactive: [1] -0.025 | [2] 0.003 | [3] 0.077 | [4] -0.032 | [5] 0.031
